Experimental data: PubChem BioAssay AID1671195 (Yale University, 2021)
Assay: 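Genes whose knockdown alters LDL uptake in liver cancer cells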 (primary screen). System: human Huh7 hepatoma cells. Knock-down reagent: siRNA pool against human genes, 18 nM. Duration: about 2 to 2.5 days of knockdown, then 8 h LDL uptake. Conditions: DiI-labelled LDL at 30 µg/ml for 8 h, in lipoprotein-deficient serum medium. Detection: 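Per-cell DiI-LDL intensity by automated imaging; well means scaled to the plate median and given as a robust z-score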. Scale: robust z-score: higher = more LDL uptake after knockdown. Call rule: 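a gene counts as active if at least two replicate z-scores exceed ±2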.
In all, the deposit lists about 22,000 reagents; below is a random part of them. Over the whole deposit, about 1,510 (6.9%) got an active call. 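Active includes knockdowns raising or lowering LDL uptake; positive z-scores mean more uptake, negative mean less.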 The numbers tell different reagents against one gene apart.

gene | pool no. | robust z-score, replicate 1 | robust z-score, replicate 2 | robust z-score, replicate 3 | Call
INSL5 | 1 | 1.2 | 0.277 | 0.626 | inactive
ABCC6 | 1 | -1.14 | -1.25 | -1.38 | inactive
STXBP5L | 1 | 1.34 | 0.581 | 0.587 | inactive
EID1 | 1 | -1.47 | -0.682 | -0.899 | inactive
EZH1 | 1 | -0.0641 | 0.0593 | 1.53 | inactive
TSPAN1 | 1 | 1.54 | 1 | 1.31 | inactive
CRACR2B | 1 | 0.291 | 0.479 | 0.404 | inactive
ABHD3 | 1 | -0.351 | -0.447 | -0.157 | inactive
LOC441169 (retired record) | 1 | 0.251 | -0.094 | -0.284 | inactive
MPEG1 | 1 | 0.963 | 0.967 | 1.43 | inactive
OGFOD3 | 1 | 1.05 | 0.477 | 1.15 | inactive
STIM2 | 1 | -0.727 | 0.0343 | -0.351 | inactive
NUFIP1 | 1 | 1.07 | 1.06 | -0.149 | inactive
ARHGEF12 | 1 | -0.343 | -0.619 | -0.573 | inactive
LOC401025 (retired record) | 1 | -1.5 | -1.81 | -1.16 | inactive
MAGIX | 1 | -1.38 | -1.62 | -1.8 | inactive
PRIM1 | 1 | -0.884 | -0.877 | -0.549 | inactive
IRX3 | 1 | 1.93 | 1.01 | 0.0507 | inactive
ACOT12 | 1 | -0.239 | 0.584 | 0.23 | inactive
DRICH1 | 1 | -2.25 | -1.14 | -0.104 | inactive
LRRC2 | 1 | -0.383 | -0.635 | 0.343 | inactive
LOC389077 (retired record) | 1 | -0.38 | 0.073 | -0.201 | inactive
PGBD1 | 1 | -0.68 | -0.488 | -0.265 | inactive
RNF213 | 1 | 0.916 | 0.741 | 0.533 | inactive
RNF213 | 2 | -0.897 | -1.04 | -0.96 | inactive
FEN1 | 1 | -0.71 | -0.644 | -0.751 | inactive
ATP5F1E | 1 | -0.696 | -0.752 | -0.477 | inactive
SLFN12 | 1 | 0.876 | 1.07 | 2.77 | inactive
CAPN1 | 1 | -0.841 | -0.0674 | -0.064 | inactive
APOL6 | 1 | -0.88 | -0.619 | -0.689 | inactive
MBTPS1 | 1 | 0.149 | 0.516 | 0.781 | inactive
MMP14 | 1 | -0.526 | 0.28 | -0.505 | inactive
DUOXA1 | 1 | 0.652 | 0.389 | 0.357 | inactive
B4GALT6 | 1 | 1.29 | 2.98 | 1.25 | inactive
ZDHHC4 | 1 | 0.47 | 2.05 | 1.31 | inactive
KDM3B | 1 | -0.366 | -1.32 | -0.242 | inactive
HARS2 | 1 | -1.29 | -0.62 | -0.37 | inactive
RSRC2 | 1 | -0.0452 | 0.179 | 0.000293 | inactive
LOC126537 (retired record) | 1 | -0.899 | -1.87 | -1.73 | inactive
EFCAB14 | 1 | -1.17 | -0.498 | -1.29 | inactive
LOC154323 (retired record) | 1 | -0.792 | 0.635 | -0.397 | inactive
MARVELD1 | 1 | -0.418 | -0.465 | -0.439 | inactive
GARIN2 | 1 | 0.231 | -0.164 | -0.923 | inactive
KLHL3 | 1 | 0.195 | -1.22 | -0.743 | inactive
USE1 | 1 | -1.98 | -1.09 | -1.18 | inactive
C8orf34 | 1 | -0.42 | 0.311 | 0.467 | inactive
C4orf50 | 1 | 0.267 | 0.646 | 0.761 | inactive
PRKDC | 1 | -1.37 | 0.2 | -0.927 | inactive
KCNB2 | 1 | 0.977 | 1 | 0.974 | inactive
USP54 | 1 | -0.173 | -0.615 | -0.15 | inactive
FLJ44076 (retired record) | 1 | -1.08 | -1.25 | -1.04 | inactive
FARSA | 1 | 0.295 | 0.596 | 0.279 | inactive
LINC01949 | 1 | 0.118 | 0.211 | -0.271 | inactive
ZNF141 | 1 | -1.78 | -1.59 | -1.3 | inactive
FAM131C2P | 1 | 1.29 | 0.922 | 0.772 | inactive
TNKS | 1 | -0.484 | -0.344 | -0.496 | inactive
RUBCN | 1 | 0.358 | -0.444 | -0.82 | inactive
LDLR | 1 | -2.85 | – | – | active
LDLR | 2 | -2.96 | -2.77 | -2.94 | active
BAIAP2 | 1 | 1.59 | 1.74 | 0.838 | inactive
ABITRAM | 1 | -0.0175 | 0.00836 | -0.205 | inactive
LOC441017 (retired record) | 1 | 0.476 | 0.314 | 0.265 | inactive
UCP3 | 1 | -0.497 | 0.297 | -0.214 | inactive
IL36B | 1 | 0.707 | 2.87 | 3.17 | active
RANGRF | 1 | 1.58 | -0.692 | 0.636 | inactive
SCARF1 | 1 | 1.34 | 1.42 | 2.03 | inactive
FBXO9 | 1 | 1.39 | 1.85 | 1.84 | inactive
IPO8 | 1 | 0.74 | 0.811 | 0.484 | inactive

A run of entries of the results above:
gene | pool no. | robust z-score, replicate 1 | robust z-score, replicate 2 | robust z-score, replicate 3 | Call
MMP14 | 1 | -0.526 | 0.28 | -0.505 | inactive
DUOXA1 | 1 | 0.652 | 0.389 | 0.357 | inactive
B4GALT6 | 1 | 1.29 | 2.98 | 1.25 | inactive
